From the supplement of paper PMC5407854, “Inhibitor of ppGalNAc-T3-mediated O-glycosylation blocks cancer cell invasiveness and lowers FGF23 levels” (eLife, 2017)
Some of the results follow. Small differences around the control level are noise.

Key:
ppGalNAc-T3 sensor = assay: T3 sensor activation Q score (MG/GFP ratio z-score vs DMSO controls) (SD units); higher = more sensor activation (inhibition of ppGalNAc-T3 glycosylation); conditions: HEK293 sensor cells; 10 µM; 6 h
Protocol: (§1)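 Cells were treated with compound at 10 uM for 6 h, then MG/GFP ratio was read by flow cytometry (10,000 cells per well, duplicate wells). Q = (R - R_neg)/SD_neg relative to DMSO vehicle controls; the signal rises when the glycosyltransferase is inhibited.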

ppGalNAc-T2 sensor = assay: T2 sensor activation Q score (MG/GFP ratio z-score vs DMSO controls) (SD units); higher = more sensor activation (inhibition of ppGalNAc-T2 glycosylation); conditions: HEK293 sensor cells; 10 µM; 6 h
Protocol: as §1

SMILES	T3 sensor activation Q score (ppGalNAc-T3 sensor)	T2 sensor activation Q score (ppGalNAc-T2 sensor)
Clc1ccc(-c2cn3ccccc3n2)cc1	-1.02	0.505
CC(C)N(CC#CC(C)(C)O)Cc1ccccc1	0.8	-1.23
CN(C)c1cnn(-c2ccccc2)c(=O)c1Cl	0.645	0.065
Nc1ncc(Cc2cccc([N+](=O)[O-])c2)s1	0.085	0.095
CCCC1CCC(c2ccc(C(=O)NN)cc2)CC1 (centres undefined)	0.295	0.27
Clc1cccc(CN2CCc3ccccc3C2)c1Cl	0.4	-0.485
Cc1ccsc1CN1CCN(c2ccc([N+](=O)[O-])cc2)CC1	0.05	0.6
O=C(O)C1CCCCC1C(=O)N1CCCCCC1 (centres undefined)	-0.36	0.115
CC12CC3(C)CC(C(=O)O)(C1)CC(C(=O)O)(C2)C3	-0.115	1.14
CNC(=O)Nc1ccc(C(=O)NC)cc1	0.63	0.075
COc1ccc(C(=O)c2cccc([N+](=O)[O-])c2)cc1	1.09	1.82
O=C1CN(C(=O)c2ccccc2)C(=O)CN1C(=O)c1ccccc1	-0.03	0.86
O=C(c1ccc(F)cc1)N1CCOCC1	-0.015	0.66
CCCc1cc(=O)[nH]c(SCC(N)=O)n1	-0.16	-0.935
Cc1ccc(NC(=O)C23CC4CC(CC(C4)C2)C3)cc1[N+](=O)[O-]	-0.51	-0.87
COc1ccccc1Nc1nc(-c2ccc(F)cc2)cs1	0.36	-0.95
O=C1C(Nc2ccc(F)c(F)c2)=C(N2CCOCC2)C(=O)c2ccccc21	-0.63	-0.675
CC1=NN(c2ccccc2)C(=O)C1C(=O)c1ccc(F)cc1 (centres undefined)	-0.375	0.825
NC(=O)c1ccc(NC(=O)C2CC2(c2ccccc2)c2ccccc2)cc1 (centres undefined)	0.075	-0.02
CN1CCN(C2CC(=O)N(c3ccccc3F)C2=O)CC1 (centres undefined)	0.04	0.565
CCN(CC)CC#CC(O)c1ccccc1 (centres undefined)	-0.045	-1.54
CC(=O)c1ccc(NC(=O)C23CC4CC(CC(C4)C2)C3)cc1	-0.88	-2.1
Cn1c(=O)[nH]c2nc(-c3ccccc3)[nH]c2c1=O	-0.1	0.11
Cc1ccc(S(=O)(=O)Nc2c(C)cc(O)c(Cl)c2C)cc1	-1.32	0.045
O=[N+]([O-])c1ccc(/C=C/c2ccc(O)cc2)cc1	1.08	-0.955
O=C(c1ccc(Br)cc1)N1CCC(Cc2ccccc2)CC1	-0.165	0.47

SMILES	T3 sensor activation Q score (ppGalNAc-T3 sensor)	T2 sensor activation Q score (ppGalNAc-T2 sensor)
CN1CCN(NC(=O)c2sc3ccccc3c2Cl)CC1	-0.03	0.305
C=CCNc1nc(OC)nc(OC)n1	-0.2	-0.575
CC(Oc1ccc(Cl)cc1)C(=O)NN (centres undefined)	0.165	-0.36
COc1ccc(CC(=O)N2CCCC2)cc1	0.255	0.295
O=C(Nc1ccc(F)cc1F)c1cccs1	0	-0.275
COc1ccc(CN2CCCCCC2)cc1	0.415	0.525
O=C(Nc1cc(Cl)ccc1Cl)[C@@H]1C[C@@H]1c1ccccc1	0.555	0.395
O=C(O)CCNC(=O)c1ccccc1	-0.06	0.435
O=c1[nH]c(-c2ccccc2O)nc2ccccc12	2	0.82
O=[N+]([O-])c1ccc(N2CCN(Cc3ccc(Br)o3)CC2)cc1	0.475	1.17
O=C(Nc1ccc(Cl)cc1)N1CCc2ccccc21	0.545	0.31
COc1ccccc1N1CCN(C2CCCC(C)C2)CC1 (centres undefined)	0.495	-0.21
CC(=O)Nc1ccc(S(=O)(=O)N2CCCC2)cc1	-0.08	-0.375
O=[N+]([O-])c1ccc(CN2CCC(O)CC2)cc1	1.11	2.04
Cc1ccc(CN2CCCN(C)CC2)c(C)c1	-0.385	1.22
CCCCn1ncc(O)c(Cl)c1=O	-0.225	1.91
COc1ccccc1C(=O)Nc1sc2c(c1C(N)=O)CCCC2	-1.13	-1.29
Cc1cc(C)cc(C(=O)c2ccccc2C(=O)O)c1	0.11	-0.56
Nc1cc(N)nc(SCCOc2ccccc2)n1	-0.025	0.72
COc1cc(C)c(CN(C)C2CCN(C)CC2)cc1C	0.39	0.39
Nc1nc2nc(-c3ccccc3)cc(-c3ccccc3)n2n1	2.15	-0.15
O=[N+]([O-])c1ccc(N2CCN(Cc3cccs3)CC2)cc1	1.36	-0.615
Cc1ccc(OCCCCN2CCCCC2)cc1	0.34	-0.625
O=C(O)c1ccc(-n2cnnn2)cc1	0.55	0.005
CCOc1ccc(CN2CCc3ccccc3C2)cc1	0.11	-0.465
CCCCN(C)C1CCN(Cc2ccccc2)CC1	0.75	-0.115

Some of the entries so far, as labelled records:
Nc1ncc(Cc2cccc([N+](=O)[O-])c2)s1
  T3 sensor activation Q score (ppGalNAc-T3 sensor): 0.085
  T2 sensor activation Q score (ppGalNAc-T2 sensor): 0.095
Clc1cccc(CN2CCc3ccccc3C2)c1Cl
  T3 sensor activation Q score (ppGalNAc-T3 sensor): 0.4
  T2 sensor activation Q score (ppGalNAc-T2 sensor): -0.485
O=[N+]([O-])c1ccc(N2CCN(Cc3ccc(Br)o3)CC2)cc1
  T3 sensor activation Q score (ppGalNAc-T3 sensor): 0.475
  T2 sensor activation Q score (ppGalNAc-T2 sensor): 1.17
